Laboratory results taken from patent EP4755921A1.
These are yes or no findings as the source states them, for the method shown. Some results given as binding are weak or reduced against the parent protein; the word gives no strength.

By UniProt entry, the sequences of proteins in these tests, tags left out.
UniProt Q9NZD1: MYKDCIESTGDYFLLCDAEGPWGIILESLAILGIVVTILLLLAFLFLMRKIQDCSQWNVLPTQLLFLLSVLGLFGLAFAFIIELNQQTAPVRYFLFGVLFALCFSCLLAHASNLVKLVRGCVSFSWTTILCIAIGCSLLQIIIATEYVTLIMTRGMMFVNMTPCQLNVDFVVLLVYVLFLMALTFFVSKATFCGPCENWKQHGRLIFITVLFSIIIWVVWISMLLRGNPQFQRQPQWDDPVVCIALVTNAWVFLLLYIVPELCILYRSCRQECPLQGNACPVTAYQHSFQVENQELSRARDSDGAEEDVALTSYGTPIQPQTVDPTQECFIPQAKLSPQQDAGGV

Molecular target: GPRC5D (G protein-coupled receptor family C group 5 member D) (UniProt Q9NZD1)
Assay: hybridoma cell screening; method of the binding test not described

binding: binds
B1: anti-GPRC5D antibody (obtained through hybridoma cell screening) (antibody, V domains shown)
VH: QVQLQESGPGLVKPSETLSLTCTVSGYSITSDYAWNWIRQPPGKGLEWMGYISYSGSATYSPSLKSRITISRDTSKNQFSLKLSSVTAADTAVYYCARGGIAGRGRWGAMDYWGQGTTVTVSS
VL: DIQMTQSPSSLSASVGDRVTITCKASQNVGTNVAWYQQKPGQSPKALIYSASYRDSGVPDRFSGSGSGTDFTLTISSLQPEDFATYYCQQYKSYPLTFGQGTRLEIK
